The entries are a selection whose mix differs from that of the whole data set. Calls are pooled over several reports, among them a noisy single-well screen.
Assays:
Conditions in all cases: stereoisomer not certain
UniProt Q8VGH1 = target: T1, UniProt Q8VGH1
T1 sequence (whole entry): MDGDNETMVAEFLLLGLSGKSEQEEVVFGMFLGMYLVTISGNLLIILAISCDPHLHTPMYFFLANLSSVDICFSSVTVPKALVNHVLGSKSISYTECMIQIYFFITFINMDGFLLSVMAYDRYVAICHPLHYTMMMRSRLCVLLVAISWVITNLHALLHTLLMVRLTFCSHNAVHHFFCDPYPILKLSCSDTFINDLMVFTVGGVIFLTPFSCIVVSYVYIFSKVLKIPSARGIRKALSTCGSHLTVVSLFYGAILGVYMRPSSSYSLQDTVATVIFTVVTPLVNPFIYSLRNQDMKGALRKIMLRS
Outline: (§1)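 Whether a receptor–molecule pair is responsive (active) rests on the original authors' judgment that its measured signal was statistically different from baseline. Pairs without that judgment are non-responsive (inactive). Sources used varied assay methods, commonly transient luciferase assays in mammalian cell lines.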

UniProt Q8VGJ1 = target: T2, UniProt Q8VGJ1
T2 sequence (whole entry): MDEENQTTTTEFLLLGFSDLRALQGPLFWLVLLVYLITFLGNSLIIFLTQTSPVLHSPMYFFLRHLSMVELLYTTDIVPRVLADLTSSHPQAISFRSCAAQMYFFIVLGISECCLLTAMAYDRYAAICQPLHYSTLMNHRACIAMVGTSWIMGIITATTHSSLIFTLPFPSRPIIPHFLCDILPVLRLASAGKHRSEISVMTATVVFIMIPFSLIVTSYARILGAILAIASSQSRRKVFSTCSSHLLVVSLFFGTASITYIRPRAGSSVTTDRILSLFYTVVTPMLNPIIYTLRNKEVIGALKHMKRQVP
Outline: as §1

UniProt Q8VGJ3 = target: T3, UniProt Q8VGJ3
T3 sequence (whole entry): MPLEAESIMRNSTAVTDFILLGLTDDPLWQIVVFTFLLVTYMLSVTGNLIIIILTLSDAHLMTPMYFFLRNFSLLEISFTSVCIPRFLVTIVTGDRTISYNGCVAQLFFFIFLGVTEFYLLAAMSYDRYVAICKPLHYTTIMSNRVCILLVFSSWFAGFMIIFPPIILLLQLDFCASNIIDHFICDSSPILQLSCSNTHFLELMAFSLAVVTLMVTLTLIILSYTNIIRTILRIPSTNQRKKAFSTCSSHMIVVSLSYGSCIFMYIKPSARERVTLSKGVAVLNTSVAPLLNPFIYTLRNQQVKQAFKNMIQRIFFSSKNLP
Outline: as §1

UniProt Q8VGJ5 = target: T4, UniProt Q8VGJ5
T4 sequence (whole entry): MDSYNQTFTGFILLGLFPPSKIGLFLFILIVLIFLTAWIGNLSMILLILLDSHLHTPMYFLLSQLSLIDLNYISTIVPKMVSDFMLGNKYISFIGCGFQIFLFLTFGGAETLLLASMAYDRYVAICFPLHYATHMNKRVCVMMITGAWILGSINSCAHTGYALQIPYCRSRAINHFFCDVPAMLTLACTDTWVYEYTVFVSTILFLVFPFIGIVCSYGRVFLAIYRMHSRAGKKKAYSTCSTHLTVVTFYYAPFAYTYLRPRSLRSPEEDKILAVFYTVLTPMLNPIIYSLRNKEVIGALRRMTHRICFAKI
Outline: as §1

UniProt Q8VGL0 = target: T5, UniProt Q8VGL0
T5 sequence (whole entry): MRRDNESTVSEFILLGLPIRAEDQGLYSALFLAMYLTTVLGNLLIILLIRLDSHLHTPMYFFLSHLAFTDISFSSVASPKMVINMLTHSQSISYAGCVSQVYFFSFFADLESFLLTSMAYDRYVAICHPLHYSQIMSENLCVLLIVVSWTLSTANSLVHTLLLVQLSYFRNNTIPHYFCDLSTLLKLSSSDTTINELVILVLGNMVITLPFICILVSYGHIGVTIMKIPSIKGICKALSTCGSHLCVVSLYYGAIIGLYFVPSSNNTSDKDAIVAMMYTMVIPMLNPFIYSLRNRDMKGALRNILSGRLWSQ
Outline: as §1

UniProt Q8VGL7 = target: T6, UniProt Q8VGL7
T6 sequence (whole entry): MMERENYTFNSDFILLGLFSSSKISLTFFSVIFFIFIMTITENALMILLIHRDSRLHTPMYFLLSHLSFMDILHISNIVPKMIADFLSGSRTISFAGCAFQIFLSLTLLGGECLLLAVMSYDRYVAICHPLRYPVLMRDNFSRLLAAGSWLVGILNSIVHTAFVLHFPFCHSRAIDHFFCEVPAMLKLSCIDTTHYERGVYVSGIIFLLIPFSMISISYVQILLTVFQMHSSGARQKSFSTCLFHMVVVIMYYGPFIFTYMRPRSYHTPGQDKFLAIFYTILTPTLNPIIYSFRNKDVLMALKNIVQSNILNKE
Outline: as §1

UniProt Q8VGM2 = target: T7, UniProt Q8VGM2
T7 sequence (whole entry): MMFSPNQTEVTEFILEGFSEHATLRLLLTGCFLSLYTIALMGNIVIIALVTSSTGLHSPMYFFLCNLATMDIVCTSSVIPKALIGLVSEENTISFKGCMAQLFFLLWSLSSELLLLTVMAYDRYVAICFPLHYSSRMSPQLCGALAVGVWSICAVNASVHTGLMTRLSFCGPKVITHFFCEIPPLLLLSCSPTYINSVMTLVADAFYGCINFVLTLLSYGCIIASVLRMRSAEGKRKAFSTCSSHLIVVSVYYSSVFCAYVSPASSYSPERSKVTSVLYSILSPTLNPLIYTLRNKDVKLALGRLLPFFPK
Outline: as §1

UniProt Q8VGP6 = target: T8, UniProt Q8VGP6
T8 sequence (whole entry): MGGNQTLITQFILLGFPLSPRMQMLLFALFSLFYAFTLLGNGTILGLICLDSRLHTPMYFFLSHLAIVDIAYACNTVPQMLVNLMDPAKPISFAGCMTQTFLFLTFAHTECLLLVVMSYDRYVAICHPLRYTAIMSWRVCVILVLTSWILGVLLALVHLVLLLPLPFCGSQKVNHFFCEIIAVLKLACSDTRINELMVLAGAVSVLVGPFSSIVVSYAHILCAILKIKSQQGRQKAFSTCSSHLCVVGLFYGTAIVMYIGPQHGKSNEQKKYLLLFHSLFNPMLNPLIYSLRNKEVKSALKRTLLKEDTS
Outline: as §1

UniProt Q8VGQ3 = target: T9, UniProt Q8VGQ3
T9 sequence (whole entry): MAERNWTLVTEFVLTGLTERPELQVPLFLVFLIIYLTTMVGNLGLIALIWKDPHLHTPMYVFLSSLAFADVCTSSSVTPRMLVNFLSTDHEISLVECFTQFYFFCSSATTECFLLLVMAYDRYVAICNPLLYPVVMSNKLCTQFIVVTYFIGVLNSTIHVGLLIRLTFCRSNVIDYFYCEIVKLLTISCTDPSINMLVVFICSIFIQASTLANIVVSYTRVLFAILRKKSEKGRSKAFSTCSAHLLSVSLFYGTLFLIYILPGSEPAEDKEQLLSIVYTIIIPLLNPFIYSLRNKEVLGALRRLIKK
Outline: as §1

UniProt Q8VGT4 = target: T10, UniProt Q8VGT4
T10 sequence (whole entry): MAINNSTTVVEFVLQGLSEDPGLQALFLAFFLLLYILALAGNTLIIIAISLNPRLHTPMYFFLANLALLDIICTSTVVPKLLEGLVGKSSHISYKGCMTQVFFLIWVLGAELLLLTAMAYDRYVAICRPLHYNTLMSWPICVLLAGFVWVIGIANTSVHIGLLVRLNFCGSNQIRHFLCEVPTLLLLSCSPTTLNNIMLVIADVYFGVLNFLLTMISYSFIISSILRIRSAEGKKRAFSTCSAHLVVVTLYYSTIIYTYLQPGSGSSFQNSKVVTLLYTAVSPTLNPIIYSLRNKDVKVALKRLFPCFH
Outline: as §1

UniProt Q8VGU3 = target: T11, UniProt Q8VGU3
T11 sequence (whole entry): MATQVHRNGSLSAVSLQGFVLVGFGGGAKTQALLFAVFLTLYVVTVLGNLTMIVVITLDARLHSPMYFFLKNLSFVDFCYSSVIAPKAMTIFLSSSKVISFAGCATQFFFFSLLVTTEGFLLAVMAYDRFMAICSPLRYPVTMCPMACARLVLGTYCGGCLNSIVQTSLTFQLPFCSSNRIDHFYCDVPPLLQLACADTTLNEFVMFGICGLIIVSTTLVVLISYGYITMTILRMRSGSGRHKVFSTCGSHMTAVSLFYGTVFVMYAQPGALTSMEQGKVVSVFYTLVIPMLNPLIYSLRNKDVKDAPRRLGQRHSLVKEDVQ
Outline: as §1

UniProt Q8VGV1 = target: T12, UniProt Q8VGV1
T12 sequence (whole entry): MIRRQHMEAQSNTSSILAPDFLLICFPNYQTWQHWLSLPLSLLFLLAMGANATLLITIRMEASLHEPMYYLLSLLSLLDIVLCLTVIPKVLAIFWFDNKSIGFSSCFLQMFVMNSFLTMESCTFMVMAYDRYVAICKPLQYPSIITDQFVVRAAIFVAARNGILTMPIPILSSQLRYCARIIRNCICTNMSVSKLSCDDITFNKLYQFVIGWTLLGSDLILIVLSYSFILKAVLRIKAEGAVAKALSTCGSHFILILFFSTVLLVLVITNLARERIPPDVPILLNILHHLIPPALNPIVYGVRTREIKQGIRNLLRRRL
Outline: as §1

UniProt Q8VGV7 = target: T13, UniProt Q8VGV7
T13 sequence (whole entry): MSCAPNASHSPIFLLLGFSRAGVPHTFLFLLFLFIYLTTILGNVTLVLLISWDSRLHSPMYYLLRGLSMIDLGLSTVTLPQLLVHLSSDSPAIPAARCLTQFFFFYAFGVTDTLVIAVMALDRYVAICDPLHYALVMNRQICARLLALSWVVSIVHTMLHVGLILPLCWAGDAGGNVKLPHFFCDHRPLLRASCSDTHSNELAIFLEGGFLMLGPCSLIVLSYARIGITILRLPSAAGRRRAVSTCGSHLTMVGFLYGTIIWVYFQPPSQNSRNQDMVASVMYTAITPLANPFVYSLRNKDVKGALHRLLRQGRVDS
Outline: as §1

UniProt Q8VGW5 = target: T14, UniProt Q8VGW5
T14 sequence (whole entry): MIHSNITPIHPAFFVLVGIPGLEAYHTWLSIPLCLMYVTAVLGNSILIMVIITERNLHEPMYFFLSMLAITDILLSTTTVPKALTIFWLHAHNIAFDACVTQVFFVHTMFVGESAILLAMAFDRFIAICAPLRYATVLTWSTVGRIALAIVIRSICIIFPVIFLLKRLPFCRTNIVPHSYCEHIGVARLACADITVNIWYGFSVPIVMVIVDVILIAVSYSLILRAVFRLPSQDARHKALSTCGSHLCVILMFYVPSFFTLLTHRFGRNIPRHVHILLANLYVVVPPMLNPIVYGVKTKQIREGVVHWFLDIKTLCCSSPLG
Outline: as §1

UniProt Q8VGX3 = target: T15, UniProt Q8VGX3
T15 sequence (whole entry): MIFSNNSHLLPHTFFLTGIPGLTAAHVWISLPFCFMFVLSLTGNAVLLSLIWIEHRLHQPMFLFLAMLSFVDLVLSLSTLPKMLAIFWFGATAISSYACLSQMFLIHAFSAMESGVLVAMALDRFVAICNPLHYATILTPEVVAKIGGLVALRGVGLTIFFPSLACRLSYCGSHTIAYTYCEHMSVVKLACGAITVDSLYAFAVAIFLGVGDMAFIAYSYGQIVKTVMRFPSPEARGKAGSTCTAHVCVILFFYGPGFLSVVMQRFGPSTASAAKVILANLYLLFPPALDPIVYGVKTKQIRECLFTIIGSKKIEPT
Outline: as §1

UniProt Q8VGX5 = target: T16, UniProt Q8VGX5
T16 sequence (whole entry): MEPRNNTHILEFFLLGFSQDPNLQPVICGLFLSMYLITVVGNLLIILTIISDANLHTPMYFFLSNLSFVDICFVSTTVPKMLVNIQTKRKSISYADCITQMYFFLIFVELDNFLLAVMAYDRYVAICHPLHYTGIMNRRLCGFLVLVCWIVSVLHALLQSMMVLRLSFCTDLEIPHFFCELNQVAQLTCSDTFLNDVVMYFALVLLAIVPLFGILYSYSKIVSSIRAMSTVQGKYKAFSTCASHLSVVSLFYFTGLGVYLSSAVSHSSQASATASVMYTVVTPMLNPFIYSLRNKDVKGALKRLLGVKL
Outline: as §1

UniProt Q8VGX8 = target: T17, UniProt Q8VGX8
T17 sequence (whole entry): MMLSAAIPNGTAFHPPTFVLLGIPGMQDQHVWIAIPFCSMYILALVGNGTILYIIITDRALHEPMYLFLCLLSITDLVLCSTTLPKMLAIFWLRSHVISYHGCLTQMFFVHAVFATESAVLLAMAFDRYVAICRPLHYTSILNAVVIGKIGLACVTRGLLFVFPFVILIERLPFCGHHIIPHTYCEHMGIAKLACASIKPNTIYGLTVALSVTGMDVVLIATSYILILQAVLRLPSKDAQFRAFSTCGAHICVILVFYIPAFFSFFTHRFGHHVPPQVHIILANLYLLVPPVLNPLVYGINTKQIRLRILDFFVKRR
Outline: as §1

UniProt Q8VGY6 = target: T18, UniProt Q8VGY6
T18 sequence (whole entry): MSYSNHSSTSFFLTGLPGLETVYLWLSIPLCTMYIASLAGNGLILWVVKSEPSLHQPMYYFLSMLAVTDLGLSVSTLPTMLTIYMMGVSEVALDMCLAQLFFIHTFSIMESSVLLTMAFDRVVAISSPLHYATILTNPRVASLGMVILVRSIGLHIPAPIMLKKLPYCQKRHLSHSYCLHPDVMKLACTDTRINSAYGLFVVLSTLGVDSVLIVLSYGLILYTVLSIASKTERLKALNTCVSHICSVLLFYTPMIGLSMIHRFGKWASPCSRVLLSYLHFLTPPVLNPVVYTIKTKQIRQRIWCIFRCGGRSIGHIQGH
Outline: as §1

UniProt Q8VGZ2 = target: T19, UniProt Q8VGZ2
T19 sequence (whole entry): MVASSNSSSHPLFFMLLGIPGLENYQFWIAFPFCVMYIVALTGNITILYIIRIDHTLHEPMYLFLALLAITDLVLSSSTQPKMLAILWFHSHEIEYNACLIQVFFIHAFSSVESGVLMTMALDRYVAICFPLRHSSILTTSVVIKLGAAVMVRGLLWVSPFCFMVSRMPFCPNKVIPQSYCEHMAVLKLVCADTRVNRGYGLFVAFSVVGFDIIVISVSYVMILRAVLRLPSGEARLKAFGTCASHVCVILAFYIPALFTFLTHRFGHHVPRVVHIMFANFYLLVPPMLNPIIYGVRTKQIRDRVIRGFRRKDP
Outline: as §1

Measured: odorant receptor agonist call;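 note: active if original authors judged signal statistically different from baseline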

CCCCCCC=O
inactive: all assays above

C=CC(C)(O)CCC=C(C)C (stereo unspecified)
inactive: UniProt Q8VGJ3 | UniProt Q8VGL0 | UniProt Q8VGU3 | UniProt Q8VGV7 | UniProt Q8VGX3 | UniProt Q8VGX5 | UniProt Q8VGZ2
